Reference: PubChem BioAssay AID1259261 (Sanger Institute, 2017)

- Screen: 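Kinase knock-downs that kill colorectal cancer cells or boost targeted drugs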 (primary screen)
- System: HCC2998 human colorectal cancer cells
- Reagents: siRNA pool against human genes
- Conditions: anchor drugs BYL719 1 µM, cetuximab 5 µg/ml or trametinib 10 nM, each compared with DMSO vehicle
- Read-out: 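Viability as fraction of non-targeting control plus robust z-score without drug; synergy scores compare knock-down plus drug against each alone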
- Direction: viability z-score, knock-down alone: higher = more viable cells than controls; viability fraction, knock-down alone: higher = more viable cells; synergy score with BYL719: higher = stronger combined killing with BYL719; synergy score with trametinib: higher = stronger combined killing with trametinib; synergy score with cetuximab: higher = stronger combined killing with cetuximab
- Rule for the call: 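Essential when the siRNA-alone viability robust z-score is below -3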
- Meaning of the calls: active = essential; inactive = no change
This is a random part of 794 reagents tested. Of all reagents, 10 (1.3%) were called active. 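Calls reflect knock-down alone without drug; synergy scores with BYL719, cetuximab or trametinib do not affect calls.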 A number with no mark means an inactive call. No viability above 1 is reported: the scale is capped. The record does not give: the amount of reagent, the time to read-out.

no.	target	viability z-score, knock-down alone	viability fraction, knock-down alone	synergy score with BYL719	synergy score with trametinib	synergy score with cetuximab
1	ACVR1B	1.07	0.983	0.035	0.0836	-0.0598
2	HIPK2	-0.55	0.78	-0.134	-0.0243	-0.00659
3	PFKL	1.21	1	0.0171	-0.00123	-0.0148
4	CDK8	1.05	0.981	-0.126	-0.0931	-0.00835
5	MELK	0.247	0.88	-0.03	0.109	-0.0596
6	FOXP1	-0.888	0.738	-0.131	0.022	-0.0168
7	DAPK2	0.97	0.971	0.0487	-0.00459	-0.00739
8	DIS3	0.313	0.888	0.0813	0.0242	0.0705
9	MAPK6	0.671	0.933	-0.047	-0.0439	-0.0588
10	CHUK	-1.61	0.647	-0.206	-0.217	-0.246
11	PCK2	0.431	0.903	-0.148	0.0862	-0.105
12	MAP4K4	1.21	1	-0.109	-0.0472	-0.0432
13	MAP3K8	-1.77	0.627	-0.0773	-0.0215	-0.0582
14	MAPK1	0.335	0.891	-0.101	0.175	-0.0311
15	DLG1	0.396	0.899	-0.0182	0.0629	-0.022
16	TNNI3K	0.959	0.969	-0.0384	0.101	-0.0452
17	PRKG2	0.484	0.91	0.0658	0.167	-0.13
18	PHKA1	-0.8	0.749	-0.192	-0.0515	-0.0993
19	RPS6KA6	1.19	0.998	-0.0724	0.0519	0.0107
20	STK38L	0.764	0.945	0.0228	0.0464	-0.0961

Entries listed so far whose gene name starts with M or m:
target	viability z-score, knock-down alone	viability fraction, knock-down alone	synergy score with BYL719	synergy score with trametinib	synergy score with cetuximab
MELK	0.247	0.88	-0.03	0.109	-0.0596
MAPK6	0.671	0.933	-0.047	-0.0439	-0.0588
MAP4K4	1.21	1	-0.109	-0.0472	-0.0432
MAP3K8	-1.77	0.627	-0.0773	-0.0215	-0.0582
MAPK1	0.335	0.891	-0.101	0.175	-0.0311
